Assay results from publication PMC6874179, “Development of Macrocycle Kinase Inhibitors for ALK2 Using Fibrodysplasia Ossificans Progressiva‐Derived Endothelial Cells” (JBMR Plus, 2019).
These are yes or no findings as the source states them, for the method shown. Some binding calls cover weakened binding; strength is not graded here.

Molecular target: T1, ALK2 (BMP type I receptor, activin A type I receptor) on murine 2H11 endothelial cells (mouse (endogenous in 2H11)) (UniProt P37172)
T1 sequence: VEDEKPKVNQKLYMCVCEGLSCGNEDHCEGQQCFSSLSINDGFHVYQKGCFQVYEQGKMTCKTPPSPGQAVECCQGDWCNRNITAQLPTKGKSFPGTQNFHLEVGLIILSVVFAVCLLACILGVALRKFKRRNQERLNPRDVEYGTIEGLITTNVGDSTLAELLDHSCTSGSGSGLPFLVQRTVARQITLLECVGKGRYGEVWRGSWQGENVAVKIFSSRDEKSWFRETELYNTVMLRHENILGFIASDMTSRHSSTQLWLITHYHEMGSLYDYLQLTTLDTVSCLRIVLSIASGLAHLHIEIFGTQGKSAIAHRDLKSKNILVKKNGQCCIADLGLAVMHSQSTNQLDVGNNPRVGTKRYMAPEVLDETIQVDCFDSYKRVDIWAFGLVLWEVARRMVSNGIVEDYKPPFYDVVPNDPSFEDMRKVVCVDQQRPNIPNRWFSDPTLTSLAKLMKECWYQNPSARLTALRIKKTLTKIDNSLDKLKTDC
Assay: radioligand binding; ligand affinity labeling of cell surface receptors with radiolabeled BMP-9 on murine 2H11 endothelial cells; conditions not shown; only the binder purified

B1: BMP-9 (ligand, UniProt Q9UK05 320-429)
chain: SAGAGSHCQKTSLRVNFEDIGWDSWIIAPKEYEAYECKGGCFFPLADDVTPTKHAIVQTLVHLKFPTKVGKACCVPTKLSPISVLYKDDMGVPTLKYHYEGMSVAECGCR
modifications: radiolabeled (isotope and residues not stated)
- binding: binds
